Measurements published in PMC5552852, “Structural basis for Ccd1 auto-inhibition in the Wnt pathway through homomerization of the DIX domain” (Scientific Reports, 2017).
These are yes or no findings as the source states them, for the method shown. For some assays here: Binding can be weak; no strength is given. For some assays here: Where a sequence is shown, tags or fusion partners need not be part of it.

T1: MBP-fused Dvl1 DIX domain (UniProt P51141)
T1 sequence: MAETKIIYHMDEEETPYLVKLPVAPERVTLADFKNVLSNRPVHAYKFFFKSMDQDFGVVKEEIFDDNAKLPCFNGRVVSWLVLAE

T2: MBP-fused Axin fragment, residues 690-740 (UniProt O70239)
T2 sequence: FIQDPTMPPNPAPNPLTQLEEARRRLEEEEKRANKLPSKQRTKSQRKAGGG


Tests used:
[1] = target: T1, MBP-fused Dvl1 DIX domain; assay: pull-down; MBP-fused Axin or Dvl1 held on amylose resin, mCcd1 DIX free; 277 K, 1 h, 10 mM HEPES-Na pH 7.5, 150 mM NaCl, 1 mM DTT; SDS-PAGE (Figures 5a, 5d, 5e); both purified
[2] = target: T2, MBP-fused Axin fragment, residues 690-740; assay: as above
[3] = target: GST-fused mCcd1 DIX domain (mouse); assay: pull-down; GST-fused mCcd1 as bait, Dvl1 DIX free; 277 K, 1 h, 10 mM HEPES-Na pH 7.5, 150 mM NaCl, 1 mM DTT; eluted with glutathione; SDS-PAGE (Figure 5b); both purified

binding [1] | binding [2] | binding [3] | Molecule
no binding | – | – | mCcd1 DIX domain W466A (mouse) (domain or fragment)
binds | no binding | – | mouse Coiled-coil-DIX1 (mCcd1) DIX domain (domain or fragment)
no binding | – | – | mCcd1 DIX domain V445A/K446A (mouse) (domain or fragment)
– | – | binds | Dvl1 DIX domain (domain or fragment, UniProt P51141 1-85) MAETKIIYHMDEEETPYLVKLPVAPERVTLADFKNVLSNRPVHAYKFFFKSMDQDFGVVKEEIFDDNAKLPCFNGRVVSWLVLAE
